# Results: the supplement of paper PMC10735217
# Where a name gives a salt, the structure may show the parent alone. The list shows a part of the results. Repeats in this data set agree poorly, so a single value says little.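 The human kidney-derived cells carry a stably integrated construct of eight TEAD-binding elements driving luciferase, read by luminescence in a drug-repurposing library screen. A compound counts as a hit when its signal is more than five robust Z scores above the plate mean.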
# Tested on: HEK293A TEAD-LUC reporter
# Experiment: TEAD-luciferase reporter activity (YAP activation), robust Z score vs plate; higher = stronger YAP/TEAD activation
# Conditions: 24 h
SMILES,TEAD-luciferase reporter activity (compound concentration: 2 uM),TEAD-luciferase reporter activity (compound concentration: 200 nM),TEAD-luciferase reporter activity (compound concentration: 10 uM)
"CN1CCC(=C2c3ccccc3CC(=O)c3sccc32)CC1 [ketotifen, Melbourne Laboratories]",inactive: 0.873,–,–
CN1CCC(=C2c3ccccc3CC(=O)c3sccc32)CC1,–,inactive: -0.138,active: 6.8
CC1=C(C(=O)O)N2C(=O)[C@@H](NC(=O)Cc3ccc(C4=NCCCN4)cc3)[C@H]2SC1,inactive: 0.317,inactive: -0.194,inactive: -0.543
CC(=O)OCC(CCn1cnc2cnc(N)nc21)COC(=O)OC(C)C (configuration not stated),inactive: 1.94,inactive: -0.878,inactive: 1.39
Cc1cc(CO)nc2cc3c(cc12)OC(C)(C)[C@@H](O)[C@@H]3NCCc1ccccc1,inactive: -0.506,inactive: 2,inactive: -0.172
CO/N=C(\C(=O)N[C@@H]1C(=O)N2C(C(=O)O)=C(COC(C)=O)CS[C@H]12)c1ccco1,inactive: -0.276,inactive: 0.152,inactive: -0.711
COc1ccc(CC(=O)N2Cc3ccccc3CC23CCCN(C(=O)CCN)C3)cc1 (configuration not stated),–,inactive: 0.968,active: 6.98
CC(O)C(CO)NC(=O)C1CSSCC(NC(=O)C(N)Cc2ccccc2)C(=O)NC(Cc2ccccc2)C(=O)NC(Cc2c[nH]c3ccccc23)C(=O)NC(CCCCN)C(=O)NC(C(C)O)C(=O)N1 (configuration not stated),inactive: -0.591,inactive: 0.397,inactive: -0.58
CCCCC[C@](C)(O)C=CC1C(O)CC(O)C1CC=CCCCC(=O)O (some centres not stated) [Carboprost Tromethamine],inactive: -0.547,inactive: -0.814,inactive: 1.25
O=C(NCc1ccncc1)C12CC3CC(C1)CC(c1ccc(Cl)cc1)(C3)C2,inactive: -0.802,inactive: -0.766,inactive: -0.0218
NCCc1c[nH]cn1 [Histamine dihydrochloride],–,inactive: -2,inactive: -1.88
"NCCc1c[nH]cn1 [histamine dihydrochloride, EpiCept]",inactive: -0.76,–,–
CN1C(=O)Cc2cnc(N3CCCCC3)nc21,inactive: -0.374,inactive: -2.76,inactive: -1.27
CNCCCC1c2ccccc2C=Cc2ccccc21 [Protriptyline hydrochloride],inactive: -1.07,inactive: 3.98,inactive: 3.15
O=C(CCCNC(=S)Nc1ccc2c(c1)OCO2)NCCCOc1cccc(CN2CCCCC2)c1,inactive: -1.35,inactive: -2.24,inactive: -0.0261
"COC(=O)CCC(=O)CN [2nd-gen methyl aminolevulinate,PhotoCure]",–,inactive: -0.355,inactive: -0.155
COC(=O)CCC(=O)CN [2nd-gen methyl aminolevulinate],inactive: 0.198,–,–

SMILES,TEAD-luciferase reporter activity (compound concentration: 2 uM),TEAD-luciferase reporter activity (compound concentration: 200 nM),TEAD-luciferase reporter activity (compound concentration: 10 uM)
N=C(N)c1ccc(C(=O)N[C@@H](Cc2ccc(O)cc2)C(=O)N2CCC(OCC(=O)O)CC2)cc1,inactive: 0.114,inactive: 0.886,inactive: 1.21
NC(Cc1c[nH]c2ccccc12)C(=O)O (configuration not stated) [tryptophan],inactive: -0.432,–,–
"NC(Cc1c[nH]c2ccccc12)C(=O)O (configuration not stated) [tryptophan, Indevus]",–,inactive: 0.76,inactive: 1.07
CCCOc1cc(N)ccc1C(=O)OCCN(CC)CC,inactive: -2.16,inactive: -0.675,inactive: -0.52
O=Cc1cccc(N2CCN(C(=O)N3CCCC3)CC2=O)c1,–,inactive: -0.82,inactive: -0.491
C=CCNC(=O)/C=C/c1ccccc1,inactive: -2.13,inactive: -1.02,inactive: 3.21
CC(=O)SC[C@@H](Cc1ccc2c(c1)OCO2)C(=O)NCC(=O)OCc1ccccc1,inactive: -0.675,inactive: -0.889,inactive: -0.552
CN[C@@H]1[C@@H](O[C@H]2O[C@H](CO)[C@@H](N)[C@H](O)[C@H]2O)O[C@H]2C[C@@H](N)[C@@H](O[C@H]3[C@H](O)[C@@H](O)[C@H](N)C[C@@H]3N)O[C@@H]2[C@@H]1O [Apramycin],–,inactive: -1.5,active: 5.62
CC(C)CCC(O)[C@H](CC1CCCCC1)NC(=O)C(Cc1cnc[nH]1)N(C)C(=O)[C@H](Cc1ccccc1)OC(=O)N(C)CCN(C)C(=O)N1CCOCC1 (some centres not stated),inactive: 0.356,inactive: 1.61,inactive: -0.52
O=C(O)C1CCC(CNCc2ccc(F)cc2)CC1 (configuration not stated),inactive: -0.161,inactive: -1.1,inactive: -0.63
COC(=O)[C@H](Cc1cccc(C(=N)N)c1)[C@@H](C)NC(=O)c1ccc(-c2ccc(OC)c(OC)c2)cc1,inactive: -1.07,inactive: -2.1,inactive: 2.41
O=C(c1ccccc1)N1[C@@H]2CC[C@H]1C[C@H](CNC[C@H]1COc3ccc(Cl)cc3O1)C2,inactive: -0.306,inactive: -0.529,inactive: 2.65
CCCC1CC(C(=O)NC(C(C)O)C2OC(SC)C(O)C(O)C2O)N(C)C1 (configuration not stated) [Lincomycin hydrochloride],inactive: -1.47,inactive: -2.31,inactive: -2.19
O=C(C1CCN(c2ccccc2[N+](=O)[O-])CC1)N1CCN(c2ccccc2O)CC1,inactive: -1.21,inactive: -0.683,inactive: 1.93
Cc1ccccc1CN1C(=O)C2=C(CCN(Cc3ccccc3)C2)N2CCN=C12,inactive: -1.41,inactive: 0.955,inactive: 1.23
c1cc2c3c(c1)[C@H]1CCC[C@H]1CN3CCNC2 [vabicaserin],inactive: 0.448,inactive: 3.48,inactive: -0.709
CC(C)C[C@@H](NC(=O)[C@H](C)NC(=O)CNC(=O)[C@@H](NC=O)C(C)C)C(=O)N[C@@H](C)C(=O)N[C@@H](C(=O)N[C@H](C(=O)N[C@@H](C(=O)N[C@@H](Cc1c[nH]c2ccccc12)C(=O)N[C@H](CC(C)C)C(=O)N[C@@H](Cc1c[nH]c2ccccc12)C(=O)N[C@H](CC(C)C)C(=O)N[C@@H](Cc1c[nH]c2ccccc12)C(=O)N[C@H](CC(C)C)C(=O)N[C@@H](Cc1c[nH]c2ccccc12)C(=O)NCCO)C(C)C)C(C)C)C(C)C,inactive: 1.72,inactive: 0.053,active: 5.6

# Complete entries from above. Values in the order: TEAD-luciferase reporter activity (compound concentration: 2 uM) | TEAD-luciferase reporter activity (compound concentration: 200 nM) | TEAD-luciferase reporter activity (compound concentration: 10 uM)
# CC(C)CCC(O)[C@H](CC1CCCCC1)NC(=O)C(Cc1cnc[nH]1)N(C)C(=O)[C@H](Cc1ccccc1)OC(=O)N(C)CCN(C)C(=O)N1CCOCC1 (some centres not stated) reads inactive: 0.356 | inactive: 1.61 | inactive: -0.52
# COC(=O)[C@H](Cc1cccc(C(=N)N)c1)[C@@H](C)NC(=O)c1ccc(-c2ccc(OC)c(OC)c2)cc1 reads inactive: -1.07 | inactive: -2.1 | inactive: 2.41
